Screen size: about 320,000 compounds; about 22,000 (6.9%) were called active. Inconclusive means that the source gave no clear call. Such entries were picked first, then a sample of the others. Calls follow the shape of the dose curve; as a rule, active = well fitted inhibition curve with a large enough effect; inconclusive = small, poorly fitted or top-dose-only effect, or another doubt; inactive = no such curve, though single readings can be large or run the other way. Where the call is inconclusive, the potency comes from a doubtful curve fit.
test: Primary qHTS for delayed death inhibitors of the malarial parasite plastid, 96 hour incubation; settings: P. falciparum luciferase reporter growth; series mostly up to 28.7 µM; activity change, negative = inhibition: at the top concentration
Outline: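 Infected RBCs, 2% Hct / 0.05% parasitemia final; luciferase-reporter P. falciparum; cpd 96 h, 37 C, 5% CO2; luciferase detection reagent; luminescence.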
% is scaled to controls: 0 for no effect and ±100 for the full control effect; potency is read from the fitted curve at half-maximal effect.

Q: With `CCn1c(CNC(=O)COc2ccc(C(C)C)cc2)nnc1SCC(=O)NC1CCCCC1C` (stereo unspecified) as the compound, how does the Potency read?
A: active: 10.4 µM

Q: For `Cc1cccc(N2CC(C(=O)Nc3nnc(SCC(=O)N4CCOCC4)s3)CC2=O)c1` (stereo unspecified), which Potency is on record?
A: inconclusive: 8.28 µM [inhibitor, partial curve]

Q: Which Potency does the source give for `CCOc1cc(/C=N/NC(=O)c2ccccc2OCc2ccc(F)cc2)ccc1O` here?
A: inconclusive: 4.65 µM [inhibitor, partial curve]

Q: Which “activity change, negative = inhibition” value does the source give for `CCOC(=O)Cn1c(-c2ccc(Cl)nc2)nc2ccccc21` here?
A: inactive: 56.5%

Q: Which “activity change, negative = inhibition” value does the source give for `CC1(C(=O)OCC(=O)Nc2cccc(S(=O)(=O)NC3=NCCCCC3)c2)CC1(Cl)Cl` (stereo unspecified) here?
A: inactive: -1.02%

Q: For `COc1ccc(/C=C2/C(=N)N3N=C(CC(=O)N4CCCC4)SC3=NC2=O)cc1OC`, which “activity change, negative = inhibition” value is on record?
A: inactive: 22.1%

Q: With `CCc1ccc(S(=O)(=O)c2ccc(-n3nc(C)cc3N)cc2)cc1` as the compound, how does the “activity change, negative = inhibition” value read?
A: inactive: -15.7%

Q: For `CC1=NN(C(=O)c2ccccc2Cl)C(O)(c2ccccc2)C1` (stereo unspecified), which Potency is on record?
A: inconclusive: 14.7 µM [inhibitor, single point]

Q: For `CCC(C)n1c(SCC(=O)/C(C#N)=C(\C)N)nc2ccccc2c1=O` (stereo unspecified), which Potency is on record?
A: active: 9.28 µM

Q: Which Potency does the source give for `COc1ccc(/C=N/Nc2cc(C)nc(-n3nc(C)cc3C)n2)cc1` here?
A: inconclusive: 0.586 µM [inhibitor, full curve, poor fit]

Q: With `CN(C(=O)c1c(Cl)cnn1C)C12CC3CC(CC(C3)C1)C2` as the compound, how does the Potency read?
A: inconclusive: 18.5 µM [inhibitor, single point]

Q: Which Potency does the source give for `Cc1ccc(S(=O)(=O)Nc2ccc3ncccc3c2)cc1` here?
A: inconclusive: 0.262 µM [inhibitor, full curve, poor fit]

Q: With `CCC(C(=O)NCC1CCCO1)N(Cc1ccc(F)cc1)C(=O)CNS(=O)(=O)c1ccccc1` (stereo unspecified) as the compound, how does the Potency read?
A: inconclusive: 2.08 µM [inhibitor, full curve]

Q: With `C/C(=N/OC(=O)C1CC1)c1cc(-c2ccc(Cl)cc2)no1` as the compound, how does the “activity change, negative = inhibition” value read?
A: inactive: 203%

Q: For `O=C1CSCN1c1ccc(Cl)c(Cl)c1`, which “activity change, negative = inhibition” value is on record?
A: inactive: 50.4%

Q: For `COc1ccc(CNC(=O)c2cc(=O)c3ccccc3o2)cc1`, which Potency is on record?
A: inconclusive: 7.38 µM [inhibitor, partial curve]

Q: For `Cc1ccc(S(=O)(=O)N2CCCC(C(=O)N3CCCc4ccccc43)C2)cc1` (stereo unspecified), which Potency is on record?
A: inconclusive: 0.185 µM [inhibitor, full curve, poor fit]

Q: For `O=C(c1ccc(O)cc1)c1ccc(C(=O)c2ccc(O)cc2)cc1`, which Potency is on record?
A: inconclusive: 10.4 µM [inhibitor, single point]

Q: With `CC(C)CNC(=O)C1CCCN(C(=O)NCc2ccccc2)C1` (stereo unspecified) as the compound, how does the Potency read?
A: active: 4.65 µM

Q: With `COc1ccc(OC)c(NC(=O)N[C@@H](Cc2ccccc2)C(=O)O)c1` as the compound, how does the “activity change, negative = inhibition” value read?
A: inactive: -2.08%

Q: With `O=C(NCCc1ccc(Cl)cc1)c1ccc(Br)s1` as the compound, how does the Potency read?
A: inconclusive: 10.4 µM [inhibitor, single point]

— PubChem BioAssay AID504834 (National Center for Advancing Translational Sciences (NCATS), 2011)
